Our source for the binding values is article PMC9998662.

Results are given in words; binding and its absence hold for the method and conditions named. Binding seen in cells or lysates may run through a third protein. Some entries that bind do so weakly or less than the wild type. Where a sequence is shown, tags or fusion partners need not be part of it.

The target in this test is T1, MIM-3xFLAG (Mus musculus) (UniProt Q8R1S4).
T1 sequence: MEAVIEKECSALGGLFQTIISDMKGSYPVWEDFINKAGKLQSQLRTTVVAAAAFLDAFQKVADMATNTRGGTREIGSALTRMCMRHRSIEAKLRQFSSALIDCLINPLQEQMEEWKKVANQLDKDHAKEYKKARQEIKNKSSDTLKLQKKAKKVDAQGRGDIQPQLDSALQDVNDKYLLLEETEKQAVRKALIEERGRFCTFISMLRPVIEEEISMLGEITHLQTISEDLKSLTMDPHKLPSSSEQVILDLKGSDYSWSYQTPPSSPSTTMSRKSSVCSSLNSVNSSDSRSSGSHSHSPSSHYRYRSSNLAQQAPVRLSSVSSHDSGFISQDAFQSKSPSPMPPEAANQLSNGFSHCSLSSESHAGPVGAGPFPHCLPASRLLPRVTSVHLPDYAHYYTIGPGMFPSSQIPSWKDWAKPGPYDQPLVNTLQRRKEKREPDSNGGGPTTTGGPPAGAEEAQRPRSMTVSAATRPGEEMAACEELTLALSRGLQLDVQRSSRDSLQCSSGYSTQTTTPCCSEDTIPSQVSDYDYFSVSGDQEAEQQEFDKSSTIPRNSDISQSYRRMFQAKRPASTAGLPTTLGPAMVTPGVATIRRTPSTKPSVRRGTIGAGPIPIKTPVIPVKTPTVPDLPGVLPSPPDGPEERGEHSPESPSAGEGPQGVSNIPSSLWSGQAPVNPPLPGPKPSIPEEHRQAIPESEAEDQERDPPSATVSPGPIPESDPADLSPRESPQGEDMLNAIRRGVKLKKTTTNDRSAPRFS
Description: co-IP; HEK293T co-transfected with MIM-3xFLAG and EVL constructs; IP with anti-FLAG antibody, Protein A/G beads; IP buffer 10% glycerol, 1% NP-40, 50 mM Tris pH 7.5, 200 mM NaCl, 2 mM MgCl2; overnight at 4°C; western blot.

B1: full-length EVL (overexpressed in HEK293T) (protein, UniProt P70429 1-414)
chain: MSEQSICQARASVMVYDDTSKKWVPIKPGQQGFSRINIYHNTASSTFRVVGVKLQDQQVVINYSIVKGLKYNQATPTFHQWRDARQVYGLNFASKEEATTFSNAMLFALNIMNSQEGGPSTQRQVQNGPSPEEMDIQRRQVMEQQHRQESLERRISATGPILPPGHPSSAASTTLSCSGPPPPPPPPVPPPPTGSTPPPPPPLPAGGAQGTNHDESSASGLAAALAGAKLRRVQRPEDASGGSSPSGTSKSDANRASSGGGGGGLMEEMNKLLAKRRKAASQTDKPADRKEDESQTEDPSTSPSPGTRATSQPPNSSEAGRKPWERSNSVEKPVSSLLSRTPSVAKSPEAKSPLQSQPHSRVKPAGSVNDVGLDALDLDRMKQEILEEVVRELHKVKEEIIDAIRQELSGISTT
For the molecule B1, the binding result is reported as “binds”.
